Measurements reported in PubChem BioAssay AID1508588 (Peter MacCallum Cancer Centre, 2020).
Shown is one part, drawn at random, of about 18,000 deposited reagents. 790 of them (4.4%) were called active. 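Calls rest on a combination of fold-change classes in drug and vehicle arms, not all shown here.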 The numbers tell different reagents against one gene apart. A reagent listed more than once was tested more than once; the source does not tell the runs apart. Reagent sequences are not shown.

Purpose: 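Which gene losses make BRAF-mutant melanoma cells more responsive to vemurafenib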 (primary screen)
System: human WM266.4 melanoma cells (BRAF V600 mutant)
Reagents: siRNA pool against human genes, 40 nM
Duration: 96 h from transfection to read-out
Challenge: vemurafenib 300 nM (about IC25), added 48 h after transfection, for 48 h; comparison arm got DMSO vehicle only
Measured: 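Ratios to non-targeting siRNA for cell gain, counted as DAPI nuclei after minus before drug and averaged over two replicates, and for absorbance-read medium lactate per cell; both binned into fold-change classes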
Scale: cell gain with vemurafenib: higher = more cell gain than with non-targeting siRNA; lactate per cell with vemurafenib: higher = more lactate made per cell
Rule for the call: 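a knock-down counts as enhancing when its fold-change classes with vehicle and with vemurafenib, taken together, show a stronger drug effect on cell gain or lactate per cell; exact class pairs not stated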
Meaning of the calls: active = enhances vemurafenib effect; inactive = no enhancement seen

cell gain with vemurafenib	lactate per cell with vemurafenib	activity call	gene symbol	reagent
0.9	0.93	inactive	ATP6V1G2 (GeneID 534)	1
0.85	0.77	inactive	SHH (GeneID 6469)	1
0.64	1.52	inactive	CLEC3B (GeneID 7123)	1
0.39	1.14	inactive	CT45A3 (GeneID 441519)	1
0.41	1	inactive	CT45A3 (GeneID 441519)	2
0.2	1.31	inactive	MBLAC2 (GeneID 153364)	1
0.66	0.94	inactive	RHBDD1 (GeneID 84236)	1
0.83	1.02	inactive	XAGE1B (GeneID 653067)	1
0.58	1.69	inactive	ARR3 (GeneID 407)	1
0.45	1.33	inactive	NKD2 (GeneID 85409)	1
0.65	0.94	inactive	GNB5 (GeneID 10681)	1
0.16	0.71	inactive	IFNA21 (GeneID 3452)	1
0.63	1.09	inactive	ESYT3 (GeneID 83850)	1
0.34	0.12	inactive	KRT38 (GeneID 8687)	1
0.13	2.8	inactive	IL1B (GeneID 3553)	1
0.27	1.31	inactive	TMEM125 (GeneID 128218)	1
0.45	2.03	inactive	RAP1GAP (GeneID 5909)	1
0.87	0.58	inactive	PCDHGA12 (GeneID 26025)	1
1.11	1	inactive	PPIAL4A (GeneID 653505)	1
-0.1	3.29	inactive	BORCS6 (GeneID 54785)	1
0.41	0.8	inactive	SSX3 (GeneID 10214)	1
0.35	0.74	inactive	OR13C9 (GeneID 286362)	1
0.78	0.59	inactive	STC1 (GeneID 6781)	1
0.24	0.74	inactive	PPARA (GeneID 5465)	1
1.11	1.2	inactive	INSM2 (GeneID 84684)	1
0.49	1.12	inactive	CRTC1 (GeneID 23373)	1
0.92	0.66	inactive	CHRNE (GeneID 1145)	1
0.85	0.63	inactive	ZNF521 (GeneID 25925)	1
1.07	0.62	inactive	CRHR2 (GeneID 1395)	1
0.79	0.56	inactive	HOXD10 (GeneID 3236)	1
0.54	0.41	inactive	SPICE1 (GeneID 152185)	1
0.77	0.94	inactive	DNAJA4 (GeneID 55466)	1
0.19	1.85	inactive	TMED5 (GeneID 50999)	1
1.13	0.59	inactive	TUBA8 (GeneID 51807)	1
0.91	0.74	inactive	GRM7 (GeneID 2917)	1
1.19	0.81	inactive	GRM7 (GeneID 2917)	1
0.96	0.83	inactive	FCGRT (GeneID 2217)	1
1.11	0.65	inactive	ACP5 (GeneID 54)	1
0.88	0.67	inactive	PCDHB3 (GeneID 56132)	1
0.15	1.44	inactive	SF3A1 (GeneID 10291)	1
0.52	1.07	inactive	SLC2A6 (GeneID 11182)	1
0.64	1.14	inactive	SRP19 (GeneID 6728)	1
0.75	0.82	inactive	DENND4C (GeneID 55667)	1
0.36	0.48	active	KLHDC2 (GeneID 23588)	1
0.26	1.05	inactive	FBXO22 (GeneID 26263)	1
0.56	0.84	inactive	RPS6KL1 (GeneID 83694)	1
0.35	1.62	inactive	SLC26A6 (GeneID 65010)	1
0.82	0.79	inactive	BRS3 (GeneID 680)	1
0.89	0.24	inactive	HK1 (GeneID 3098)	1
0.61	1.02	inactive	IFT43 (GeneID 112752)	1
0.42	0.9	inactive	DELEC1 (GeneID 50514)	1
0.37	0.39	active	FSAF1 (GeneID 128061)	1
0.79	0.76	inactive	DSC1 (GeneID 1823)	1
0.63	1.08	inactive	IQCF2 (GeneID 389123)	1
0.53	1.73	inactive	PLAC1 (GeneID 10761)	1
0.37	0.44	inactive	UBE3A (GeneID 7337)	1
0.8	0.56	inactive	GPAT3 (GeneID 84803)	1
